Source: PubChem BioAssay AID652243 (Drosophila RNAi Screening Center, 2013)

Assay: 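Knock-downs that decrease or increase androgen receptor reporter signal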 (primary screen)
Cells: Drosophila S2R+ cells
Reagents: long dsRNA against Drosophila genes
Time to read-out: 72 h (48 h, then 24 h hormone)
Challenge: synthetic androgen R1881 at 10 nM for 24 h
Measured: 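Per-well raw luminescence of the androgen-driven firefly reporter and of the Renilla control, two replicates each, without normalisation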
Reading the numbers: firefly reporter light: higher = more light from androgen-responsive reporter; Renilla control light: higher = more constitutive control signal (cell number, transfection)
Call rule: 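Across duplicate plates, a knock-down whose log firefly/Renilla ratio shifted a set fold down or up from the GFP/LacZ control mean was a hit; the downward cut appears as both 1.5 and 3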
Meaning of the calls: active = hit: reporter lowered or raised; inactive = no hit
The deposit covers about 24,000 reagents; below is an unselected part of those with a known target gene and a result. Of all reagents, 246 (1%) got an active call. 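Plates not normalised; calls are printed but the firefly/Renilla ratio behind them is not deposited; fold cut for lowering reported inconsistently.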 Raw values vary from plate to plate and are shown uncorrected. Unmarked entries are inactive. Reagent sequences are not shown. Not stated in the record: the amount of reagent.

What did the screen give for CG5214 (GeneID 41360) [DRSC15739]?
firefly reporter light, replicate 1: 1.65e5 (active); firefly reporter light, replicate 2: 1.45e5; Renilla control light, replicate 1: 2.82e6; Renilla control light, replicate 2: 2.33e6

What did the screen give for CG5214 (GeneID 41360) [DRSC22842]?
firefly reporter light, replicate 1: 4.96e5; firefly reporter light, replicate 2: 7.81e5; Renilla control light, replicate 1: 9.86e5; Renilla control light, replicate 2: 1.05e6

What did the screen give for CG5214 (GeneID 41360) [DRSC25298]?
firefly reporter light, replicate 1: 8.43e5; firefly reporter light, replicate 2: 8.27e5; Renilla control light, replicate 1: 7.53e5; Renilla control light, replicate 2: 8.07e5

What did the screen give for CG13876 (GeneID 38031) [DRSC08346]?
firefly reporter light, replicate 1: 54802; firefly reporter light, replicate 2: 74821; Renilla control light, replicate 1: 1.30e6; Renilla control light, replicate 2: 1.28e6

With CG6962 (GeneID 41436) [DRSC16153], how do the results read?
firefly reporter light, replicate 1: 42765; firefly reporter light, replicate 2: 47007; Renilla control light, replicate 1: 3.90e5; Renilla control light, replicate 2: 4.77e5

With CG6962 (GeneID 41436) [DRSC28894], how do the results read?
firefly reporter light, replicate 1: 5.38e5; firefly reporter light, replicate 2: 6.07e5; Renilla control light, replicate 1: 9.83e5; Renilla control light, replicate 2: 1.28e6

For ktub (GeneID 37400) [DRSC04551], what was measured?
firefly reporter light, replicate 1: 8.65e5; firefly reporter light, replicate 2: 9.82e5; Renilla control light, replicate 1: 1.98e6; Renilla control light, replicate 2: 1.90e6

For Or63a (GeneID 38354) [DRSC08681], how do the results read?
firefly reporter light, replicate 1: 1.50e5; firefly reporter light, replicate 2: 1.84e5; Renilla control light, replicate 1: 2.97e6; Renilla control light, replicate 2: 3.29e6

How did the screen score mEFTs (GeneID 35060) [DRSC02953]?
firefly reporter light, replicate 1: 8.62e5; firefly reporter light, replicate 2: 9.27e5; Renilla control light, replicate 1: 1.69e6; Renilla control light, replicate 2: 1.54e6

For mEFTs (GeneID 35060) [DRSC30019], how do the results read?
firefly reporter light, replicate 1: 5.94e5; firefly reporter light, replicate 2: 3.31e5; Renilla control light, replicate 1: 1.47e6; Renilla control light, replicate 2: 1.19e6

How did the screen score CG12984 (GeneID 40321) [DRSC11693]?
firefly reporter light, replicate 1: 1.71e5; firefly reporter light, replicate 2: 1.89e5; Renilla control light, replicate 1: 1.42e6; Renilla control light, replicate 2: 2.17e6

What is on record for CG31787 (GeneID 318941) [DRSC01632]?
firefly reporter light, replicate 1: 1.32e5; firefly reporter light, replicate 2: 2.12e5; Renilla control light, replicate 1: 5.12e5; Renilla control light, replicate 2: 7.30e5
